Results are given in words; binding and its absence hold for the method and conditions named. Binding seen in cells or lysates may run through a third protein. Some binding calls cover weakened binding; strength is not graded here.
Target: HisTrx-SGTA (recombinant human SGTA, HisTrx-tagged) (human) (UniProt O43765)

Protein sequences, listed by entry. Tags and fused reporters are not part of them.
UniProt O43765: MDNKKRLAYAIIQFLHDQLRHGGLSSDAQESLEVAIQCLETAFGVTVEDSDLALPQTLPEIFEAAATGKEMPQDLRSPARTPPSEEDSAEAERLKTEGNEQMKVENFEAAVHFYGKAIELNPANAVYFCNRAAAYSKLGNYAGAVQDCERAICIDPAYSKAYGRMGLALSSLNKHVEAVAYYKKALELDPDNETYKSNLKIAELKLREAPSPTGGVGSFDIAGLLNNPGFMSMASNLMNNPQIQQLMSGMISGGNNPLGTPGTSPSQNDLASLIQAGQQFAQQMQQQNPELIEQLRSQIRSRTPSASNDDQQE
UniProt Q9Y6X1: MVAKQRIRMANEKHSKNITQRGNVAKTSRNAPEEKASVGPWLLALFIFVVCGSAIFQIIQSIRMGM

RAMP4, stress-associated endoplasmic reticulum protein 1 (mRNA with a stop codon) (from UniProt Q9Y6X1 1-66)
binding: binds

— publication PMC7202230
